Test results taken from paper PMC4537036.
No constants are given. Whether binding was seen depends on the method and setting. For part of these data: In cells and extracts the contact can be indirect. Some results given as binding are weak or reduced against the parent protein; the word gives no strength. For part of these data: Tags and fused reporters may be left off the sequences shown. Values belong to the binder of their own block, whether it stands above or below them.

Experiments:
[1] = molecular target: T1, Leupaxin, full length, yeast two-hybrid bait (pGBKT7-LPXN) (human) (UniProt O60711); assay: two-hybrid; direct test: pGBKT7-LPXN and pGADT7-CALD1 co-transformed into yeast AH109; SD -LTHA with 80 mg/l X-Gal
T1 sequence: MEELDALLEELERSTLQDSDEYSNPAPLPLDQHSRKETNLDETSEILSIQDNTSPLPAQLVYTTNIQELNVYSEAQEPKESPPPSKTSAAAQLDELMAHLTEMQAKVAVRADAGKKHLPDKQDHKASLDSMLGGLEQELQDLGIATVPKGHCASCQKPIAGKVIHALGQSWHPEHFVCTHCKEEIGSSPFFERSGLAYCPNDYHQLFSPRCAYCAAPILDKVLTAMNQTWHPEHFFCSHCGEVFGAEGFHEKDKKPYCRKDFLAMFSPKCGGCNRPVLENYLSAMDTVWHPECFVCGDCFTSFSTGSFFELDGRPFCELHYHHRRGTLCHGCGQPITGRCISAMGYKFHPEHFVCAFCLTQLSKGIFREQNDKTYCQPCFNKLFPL

[2] = molecular target: T2, GST-LPXN (full-length leupaxin) (human) (UniProt O60711); assay: pull-down; purified GST-LPXN fusion proteins on glutathione-Sepharose, incubated with protein lysate of PC-3 cells transfected with pEGFP-Caldesmon; blot with CaD-specific antibody; only the target purified
T2 sequence: T1 sequence

[3] = molecular target: T3, Caldesmon-Myc fusion protein (pCMV-Myc-CaD) (human) (UniProt Q05682); assay: co-IP; lysate of PC-3 cells transfected with pCMV-Myc-CaD or pCMV-Myc-LPXN; precipitation with anti-CaD or anti-LPXN antibody, blot with LPXN-specific or CaD-specific antibody
T3 sequence: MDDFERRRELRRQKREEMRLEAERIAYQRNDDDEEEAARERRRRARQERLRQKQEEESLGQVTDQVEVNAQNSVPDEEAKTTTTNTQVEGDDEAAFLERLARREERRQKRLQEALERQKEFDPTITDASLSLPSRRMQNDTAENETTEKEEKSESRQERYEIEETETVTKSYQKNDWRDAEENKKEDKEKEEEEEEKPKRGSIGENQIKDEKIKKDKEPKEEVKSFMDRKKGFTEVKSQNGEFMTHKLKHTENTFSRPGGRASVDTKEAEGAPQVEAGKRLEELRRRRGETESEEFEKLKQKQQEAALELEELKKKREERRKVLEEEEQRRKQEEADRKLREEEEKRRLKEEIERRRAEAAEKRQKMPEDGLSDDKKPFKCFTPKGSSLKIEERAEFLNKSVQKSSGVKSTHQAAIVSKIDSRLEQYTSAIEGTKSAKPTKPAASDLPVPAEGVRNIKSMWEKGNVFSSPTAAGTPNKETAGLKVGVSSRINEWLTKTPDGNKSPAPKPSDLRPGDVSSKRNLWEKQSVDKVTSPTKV

binding [1]: binds
B1: Caldesmon, full length, yeast two-hybrid prey (pGADT7-CALD1) (protein, UniProt Q05682-4 1-538)
chain: T3 sequence

binding [2]: binds
B2: EGFP-Caldesmon fusion protein (pEGFP-CALD1) (protein, UniProt Q05682-4 1-538)
chain: T3 sequence

binding [3]: binds
B3: Leupaxin, endogenous in prostate cancer cells (protein, UniProt O60711 1-386)
chain: T1 sequence
